Some results were stated once for a whole list of compounds, not compound by compound.
What was measured:
histamine H1 -receptor = biological target: T1, histamine H1 -receptor (Cavia porcellus, UniProt P31389); assay: guinea pig ileum test (histamine H1-antagonist activity in vitro); conditions: for pA2 value (histamine H1-antagonist activity): isolated guinea pig ileum, histamine-induced contraction, 8 min contact, 30° C.; for difference in pA2 values (H1 ileum vs H2 atrium): pA2 guinea pig ileum minus pA2 guinea pig atrium
T1 construct: an isolated portion of the guinea pig ileum; from tissue; host or cells: guinea pig ileum

By UniProt entry, the sequences of proteins in these tests, tags left out.
UniProt P31389, whole entry: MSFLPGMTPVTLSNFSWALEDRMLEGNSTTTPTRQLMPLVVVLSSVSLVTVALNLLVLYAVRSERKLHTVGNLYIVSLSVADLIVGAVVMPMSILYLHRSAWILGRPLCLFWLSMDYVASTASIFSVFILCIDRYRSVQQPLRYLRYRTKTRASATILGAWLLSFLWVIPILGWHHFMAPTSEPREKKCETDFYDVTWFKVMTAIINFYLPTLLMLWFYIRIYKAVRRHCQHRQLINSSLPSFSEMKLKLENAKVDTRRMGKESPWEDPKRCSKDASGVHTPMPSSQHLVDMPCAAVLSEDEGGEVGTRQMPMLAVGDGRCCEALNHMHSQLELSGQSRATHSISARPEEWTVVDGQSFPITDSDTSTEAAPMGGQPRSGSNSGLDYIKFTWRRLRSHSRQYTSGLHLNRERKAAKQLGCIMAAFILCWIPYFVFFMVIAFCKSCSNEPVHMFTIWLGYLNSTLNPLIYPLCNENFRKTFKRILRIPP
UniProt P47747, whole entry: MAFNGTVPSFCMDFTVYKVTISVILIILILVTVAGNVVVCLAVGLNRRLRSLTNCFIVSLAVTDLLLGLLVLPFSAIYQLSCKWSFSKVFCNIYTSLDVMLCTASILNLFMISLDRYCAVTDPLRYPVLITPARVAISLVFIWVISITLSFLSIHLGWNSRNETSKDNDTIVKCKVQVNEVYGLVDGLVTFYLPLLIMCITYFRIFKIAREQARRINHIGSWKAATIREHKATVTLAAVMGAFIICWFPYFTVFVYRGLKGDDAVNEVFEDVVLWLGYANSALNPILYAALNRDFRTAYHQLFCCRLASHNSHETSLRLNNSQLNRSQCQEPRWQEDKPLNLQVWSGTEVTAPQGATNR

histamine H2 -receptor = biological target: T2, histamine H2 -receptor (Cavia porcellus, UniProt P47747); assay: guinea pig atrium test (histamine H2-antagonist activity in vitro); conditions: isolated guinea pig right atrium, histamine-stimulated rate of beating, 60 min contact, 37° C.
T2 construct: a spontaneously beating isolated portion of the guinea pig right atrium; from tissue; host or cells: guinea pig right atrium

Structure (SMILES) | pA2 value (histamine H1-antagonist activity) (histamine H1 -receptor) | difference in pA2 values (H1 ileum vs H2 atrium) (histamine H1 -receptor) | pA2 value (histamine H2-antagonist activity) (histamine H2 -receptor)
Cc1cc(Br)cnc1CCCCNc1ncc(Cc2ccn(C)c(=O)c2)c(=O)[nH]1 [Example 1, 2-[4-(5-bromo-3-methylpyrid-2-yl)butylamino]-5-(1-methyl-2-oxo-pyrid-4-yl-methyl)-4-pyrimidone] | greater than 8 | greater than 3 | less than 5
Cc1cc(Br)cnc1CCCCNc1ncc(Cc2ccn(Cc3ccccc3)c(=O)c2)c(=O)[nH]1 [Example 2, 2-[4-(5-bromo-3-methylpyrid-2-yl)butylamino]-5-(1-benzyl-2-oxo-pyrid-4-ylmethyl)4-pyrimidone] | greater than 8 | greater than 3 | less than 5
CCCCn1ccc(Cc2cnc(NCCCCc3ncc(Br)cc3N)[nH]c2=O)cc1=O [Example 3, 2-[4-(5-bromo-3-aminopyrid-2-yl)-butylamino]-5-(1-n-butyl-2-oxo-pyrid-4-ylmethyl)-4-pyrimidone] | greater than 8 | greater than 3 | less than 5

From US4537890A, “2-(3,5-Substituted-2-pyridylalkylamino)-5-oxopyridylmethyl-4-pyrimidones useful as histamine H1 -antagonists” (Smith Kline & French Laboratories Limited, priority 1982, dated 1985)
